The target in test [1] is T1, HOOK3 (endogenous) (human (endogenous in HeLa)) (UniProt Q86VS8).
T1 sequence: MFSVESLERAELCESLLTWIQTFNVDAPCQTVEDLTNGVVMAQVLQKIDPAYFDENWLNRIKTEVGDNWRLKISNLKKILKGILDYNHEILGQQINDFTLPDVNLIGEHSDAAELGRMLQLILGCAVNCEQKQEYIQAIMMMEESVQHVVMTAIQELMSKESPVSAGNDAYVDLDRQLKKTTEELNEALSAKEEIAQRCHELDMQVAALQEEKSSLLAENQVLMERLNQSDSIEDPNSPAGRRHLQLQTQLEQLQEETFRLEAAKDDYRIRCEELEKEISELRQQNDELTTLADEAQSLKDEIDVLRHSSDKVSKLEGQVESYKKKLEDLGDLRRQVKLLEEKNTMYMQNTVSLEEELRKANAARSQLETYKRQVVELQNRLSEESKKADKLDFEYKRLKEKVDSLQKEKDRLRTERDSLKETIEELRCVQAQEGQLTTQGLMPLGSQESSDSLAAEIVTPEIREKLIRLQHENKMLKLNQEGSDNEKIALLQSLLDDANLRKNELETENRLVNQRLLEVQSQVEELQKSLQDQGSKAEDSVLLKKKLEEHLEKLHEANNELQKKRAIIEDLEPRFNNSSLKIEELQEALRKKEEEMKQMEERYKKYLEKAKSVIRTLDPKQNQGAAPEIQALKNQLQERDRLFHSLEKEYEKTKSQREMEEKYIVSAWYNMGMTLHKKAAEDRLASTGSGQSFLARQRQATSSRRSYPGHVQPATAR
Briefly: co-IP; HeLa extracts in Buffer H (sonicated, 15,000 x g); 2 hr at 4°C with A/G-agarose beads pre-linked with antibody; washed with coIP-washing buffer; Western blot; cells left non-treated, treated with 100 ng/mL nocodazole for 16 hr, or released from a thymidine block.

For test [2], the target named is T1, HOOK3 (endogenous) (human (endogenous in HeLa)). Briefly: proximity ligation; Duolink PLA kit on fixed, permeabilized HeLa cells; non-treated or 100 ng/mL nocodazole for 16 hr; pHisH3 staining marks mitotic cells.
Test [3] deals with T2, GFP-HOOK3 2SA (S238,707A) (human) (UniProt Q86VS8).
T2 sequence: T1 sequence with S238A, S707A
The test can be described thus: co-IP; HeLa extracts in Buffer H (sonicated, 15,000 x g); 2 hr at 4°C with A/G-agarose beads pre-linked with antibody; washed with coIP-washing buffer; Western blot; cells left non-treated, treated with 100 ng/mL nocodazole for 16 hr, or released from a thymidine block. Background: A western blot detects proteins with antibodies after separation by electrophoresis.

The next test concerns the target T3, GFP-WT-HOOK3 (human) (UniProt Q86VS8).
T3 sequence: T1 sequence
Described as above.

Test [4] concerns the target T1, HOOK3 (endogenous) (human (endogenous in HeLa)). The test can be described thus: condition: only cycling cells (no nocodazole, not in mitosis); co-IP; as a1, extracts of cycling (non-treated) HeLa cells only.

Where a chain is given by its changes, count along the chain named. No constants are given. Whether binding was seen depends on the method and setting. In cells and extracts the contact can be indirect. Some entries that bind do so weakly or less than the wild type. For part of these data: Tags and fused reporters may be left off the sequences shown.

B1: CLASP2 (endogenous) (protein, UniProt O75122 1-1294)
chain: MAMGDDKSFDDEESVDGNRPSSAASAFKVPAPKTSGNPANSARKPGSAGGPKVGGASKEGGAGAVDEDDFIKAFTDVPSIQIYSSRELEETLNKIREILSDDKHDWDQRANALKKIRSLLVAGAAQYDCFFQHLRLLDGALKLSAKDLRSQVVREACITVAHLSTVLGNKFDHGAEAIVPTLFNLVPNSAKVMATSGCAAIRFIIRHTHVPRLIPLITSNCTSKSVPVRRRSFEFLDLLLQEWQTHSLERHAAVLVETIKKGIHDADAEARVEARKTYMGLRNHFPGEAETLYNSLEPSYQKSLQTYLKSSGSVASLPQSDRSSSSSQESLNRPFSSKWSTANPSTVAGRVSAGSSKASSLPGSLQRSRSDIDVNAAAGAKAHHAAGQSVRSGRLGAGALNAGSYASLEDTSDKLDGTASEDGRVRAKLSAPLAGMGNAKADSRGRSRTKMVSQSQPGSRSGSPGRVLTTTALSTVSSGVQRVLVNSASAQKRSKIPRSQGCSREASPSRLSVARSSRIPRPSVSQGCSREASRESSRDTSPVRSFQPLASRHHSRSTGALYAPEVYGASGPGYGISQSSRLSSSVSAMRVLNTGSDVEEAVADALKKPARRRYESYGMHSDDDANSDASSACSERSYSSRNGSIPTYMRQTEDVAEVLNRCASSNWSERKEGLLGLQNLLKNQRTLSRVELKRLCEIFTRMFADPHGKRVFSMFLETLVDFIQVHKDDLQDWLFVLLTQLLKKMGADLLGSVQAKVQKALDVTRESFPNDLQFNILMRFTVDQTQTPSLKVKVAILKYIETLAKQMDPGDFINSSETRLAVSRVITWTTEPKSSDVRKAAQSVLISLFELNTPEFTMLLGALPKTFQDGATKLLHNHLRNTGNGTQSSMGSPLTRPTPRSPANWSSPLTSPTNTSQNTLSPSAFDYDTENMNSEDIYSSLRGVTEAIQNFSFRSQEDMNEPLKRDSKKDDGDSMCGGPGMSDPRAGGDATDSSQTALDNKASLLHSMPTHSSPRSRDYNPYNYSDSISPFNKSALKEAMFDDDADQFPDDLSLDHSDLVAELLKELSNHNERVEERKIALYELMKLTQEESFSVWDEHFKTILLLLLETLGDKEPTIRALALKVLREILRHQPARFKNYAELTVMKTLEAHKDPHKEVVRSAEEAASVLATSISPEQCIKVLCPIIQTADYPINLAAIKMQTKVIERVSKETLNLLLPEIMPGLIQGYDNSESSVRKACVFCLVAVHAVIGDELKPHLSQLTGSKMKLLNLYIKRAQTGSGGADPTTDVSGQS
Take B1: the binding entry in test [1] is given as “binds”.

B2: GM130 (endogenous) (protein, UniProt Q08379 1-1002)
chain: MWPQPRLPPRPAMSEETRQSKLAAAKKKLREYQQRNSPGVPTGAKKKKKIKNGSNPETTTSGGCHSPEDTPKDNAATLQPSDDTVLPGGVPSPGASLTSMAASQNHDADNVPNLMDETKTFSSTESLRQLSQQLNGLVCESATCVNGEGPASSANLKDLESRYQQLAVALDSSYVTNKQLNITIEKLKQQNQEITDQLEEEKKECHQKQGALREQLQVHIQTIGILVSEKAELQTALAHTQHAARQKEGESEDLASRLQYSRRRVGELERALSAVSTQQKKADRYNKELTKERDALRLELYKNTQSNEDLKQEKSELEEKLRVLVTEKAGMQLNLEELQKKLEMTELLLQQFSSRCEAPDANQQLQQAMEERAQLEAHLGQVMESVRQLQMERDKYAENLKGESAMWRQRMQQMSEQVHTLREEKECSMSRVQELETSLAELRNQMAEPPPPEPPAGPSEVEQQLQAEAEHLRKELEGLAGQLQAQVQDNEGLSRLNREQEERLLELERAAELWGEQAEARRQILETMQNDRTTISRALSQNRELKEQLAELQSGFVKLTNENMEITSALQSEQHVKRELGKKLGELQEKLSELKETVELKSQEAQSLQQQRDQYLGHLQQYVAAYQQLTSEKEVLHNQLLLQTQLVDQLQQQEAQGKAVAEMARQELQETQERLEAATQQNQQLRAQLSLMAHPGEGDGLDREEEEDEEEEEEEAVAVPQPMPSIPEDLESREAMVAFFNSAVASAEEEQARLRGQLKEQRVRCRRLAHLLASAQKEPEAAAPAPGTGGDSVCGETHRALQGAMEKLQSRFMELMQEKADLKERVEELEHRCIQLSGETDTIGEYIALYQSQRAVLKERHREKEEYISRLAQDKEEMKVKLLELQELVLRLVGDRNEWHGRFLAAAQNPADEPTSGAPAPQELGAANQQGDLCEVSLAGSVEPAQGEAREGSPRDNPTAQQIMQLLREMQNPRERPGLGSNPCIPFFYRADENDEVKITVI
As to B2, the binding result in test [2] was “binds”; in test [1] it was “binds”; in test [3] it was “no binding”; in the test with GFP-WT-HOOK3 (human), “binds”; in test [4], “no binding”.

These data come from publication PMC8215223.
